Data on seven molecules can be found in article PMC7948961, “Proteomic identification and validation of novel interactions of the putative tumor suppressor PRELP with membrane proteins including IGFI-R and p75NTR” (The Journal of Biological Chemistry, 2021).

No constants are given. Whether binding was seen depends on the method and setting. In cells and extracts the contact can be indirect. A yes stands for co-enrichment or nearness to the bait. Other partners may have been found. Sequences can lack the tags named with a protein.

The chains are these.
T1: Human PRELP (proline and arginine-rich end leucine-rich repeat protein) with a C-terminal FLAG tag, overexpressed in Expi293 cells (human) (UniProt P51888)
T1 sequence: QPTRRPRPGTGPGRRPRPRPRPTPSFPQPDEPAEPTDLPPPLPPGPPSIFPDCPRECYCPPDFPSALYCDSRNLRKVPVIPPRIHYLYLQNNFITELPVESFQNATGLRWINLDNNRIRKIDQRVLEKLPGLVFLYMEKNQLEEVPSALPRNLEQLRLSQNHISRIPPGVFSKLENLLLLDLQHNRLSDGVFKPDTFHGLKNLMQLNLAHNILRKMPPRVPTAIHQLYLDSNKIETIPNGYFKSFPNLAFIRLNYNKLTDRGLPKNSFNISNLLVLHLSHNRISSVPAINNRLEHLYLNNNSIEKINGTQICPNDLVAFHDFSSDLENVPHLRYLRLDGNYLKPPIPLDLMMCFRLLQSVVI

B1: Adhesion G-protein-coupled receptor L2 (receptor, UniProt O95490 26-1459)
chain: FSRAALPFGLVRRELSCEGYSIDLRCPGSDVIMIESANYGRTDDKICDADPFQMENTDCYLPDAFKIMTQRCNNRTQCIVVTGSDVFPDPCPGTYKYLEVQYECVPYIFVCPGTLKAIVDSPCIYEAEQKAGAWCKDPLQAADKIYFMPWTPYRTDTLIEYASLEDFQNSRQTTTYKLPNRVDGTGFVVYDGAVFFNKERTRNIVKFDLRTRIKSGEAIINYANYHDTSPYRWGGKTDIDLAVDENGLWVIYATEQNNGMIVISQLNPYTLRFEATWETVYDKRAASNAFMICGVLYVVRSVYQDNESETGKNSIDYIYNTRLNRGEYVDVPFPNQYQYIAAVDYNPRDNQLYVWNNNFILRYSLEFGPPDPAQVPTTAVTITSSAELFKTIISTTSTTSQKGPMSTTVAGSQEGSKGTKPPPAVSTTKIPPITNIFPLPERFCEALDSKGIKWPQTQRGMMVERPCPKGTRGTASYLCMISTGTWNPKGPDLSNCTSHWVNQLAQKIRSGENAASLANELAKHTKGPVFAGDVSSSVRLMEQLVDILDAQLQELKPSEKDSAGRSYNKLQKREKTCRAYLKAIVDTVDNLLRPEALESWKHMNSSEQAHTATMLLDTLEEGAFVLADNLLEPTRVSMPTENIVLEVAVLSTEGQIQDFKFPLGIKGAGSSIQLSANTVKQNSRNGLAKLVFIIYRSLGQFLSTENATIKLGADFIGRNSTIAVNSHVISVSINKESSRVYLTDPVLFTLPHIDPDNYFNANCSFWNYSERTMMGYWSTQGCKLVDTNKTRTTCACSHLTNFAILMAHREIAYKDGVHELLLTVITWVGIVISLVCLAICIFTFCFFRGLQSDRNTIHKNLCINLFIAEFIFLIGIDKTKYAIACPIFAGLLHFFFLAAFAWMCLEGVQLYLMLVEVFESEYSRKKYYYVAGYLFPATVVGVSAAIDYKSYGTEKACWLHVDNYFIWSFIGPVTFIILLNIIFLVITLCKMVKHSNTLKPDSSRLENIKSWVLGAFALLCLLGLTWSFGLLFINEETIVMAYLFTIFNAFQGVFIFIFHCALQKKVRKEYGKCFRHSYCCGGLPTESPHSSVKASTTRTSARYSSGTQSRIRRMWNDTVRKQSESSFISGDINSTSTLNQGMTGNYLLTNPLLRPHGTNNPYNTLLAETVVCNAPSAPVFNSPGHSLNNARDTSAMDTLPLNGNFNNSYSLHKGDYNDSVQVVDCGLSLNDTAFEKMIISELVHNNLRGSSKTHNLELTLPVKPVIGGSSSEDDAIVADASSLMHSDNPGLELHHKELEAPLIPQRTHSLLYQPQKKVKSEGTDSYVSQLTAEAEDHLQSPNRDSLYTSMPNLRDSPYPESSPDMEEDLSPSRRSENEDIYYKSMPNLGAGHQLQMCYQISRGNSDGYIIPINKEGCIPEGDVREGQMQLVTSL
B2: Protocadherin-7 (protein, UniProt O60245 29-1069)
chain: AAKQLLRYRLAEEGPADVRIGNVASDLGIVTGSGEVTFSLESGSEYLKIDNLTGELSTSERRIDREKLPQCQMIFDENECFLDFEVSVIGPSQSWVDLFEGQVIVLDINDNTPTFPSPVLTLTVEENRPVGTLYLLPTATDRDFGRNGIERYELLQEPGGGGSGGESRRAGAADSAPYPGGGGNGASGGGSGGSKRRLDASEGGGGTNPGGRSSVFELQVADTPDGEKQPQLIVKGALDREQRDSYELTLRVRDGGDPPRSSQAILRVLITDVNDNSPRFEKSVYEADLAENSAPGTPILQLRAADLDVGVNGQIEYVFGAATESVRRLLRLDETSGWLSVLHRIDREEVNQLRFTVMARDRGQPPKTDKATVVLNIKDENDNVPSIEIRKIGRIPLKDGVANVAEDVLVDTPIALVQVSDRDQGENGVVTCTVVGDVPFQLKPASDTEGDQNKKKYFLHTSTPLDYEATREFNVVIVAVDSGSPSLSSNNSLIVKVGDTNDNPPMFGQSVVEVYFPENNIPGERVATVLATDADSGKNAEIAYSLDSSVMGIFAIDPDSGDILVNTVLDREQTDRYEFKVNAKDKGIPVLQGSTTVIVQVADKNDNDPKFMQDVFTFYVKENLQPNSPVGMVTVMDADKGRNAEMSLYIEENNNIFSIENDTGTIYSTMSFDREHQTTYTFRVKAVDGGDPPRSATATVSLFVMDENDNAPTVTLPKNISYTLLPPSSNVRTVVATVLATDSDDGINADLNYSIVGGNPFKLFEIDPTSGVVSLVGKLTQKHYGLHRLVVQVNDSGQPSQSTTTLVHVFVNESVSNATAIDSQIARSLHIPLTQDIAGDPSYEISKQRLSIVIGVVAGIMTVILIILIVVMARYCRSKNKNGYEAGKKDHEDFFTPQQHDKSKKPKKDKKNKKSKQPLYSSIVTVEASKPNGQRYDSVNEKLSDSPSMGRYRSVNGGPGSPDLARHYKSSSPLPTVQLHPQSPTAGKKHQAVQDLPPANTFVGAGDNISIGSDHCSEYSCQTNNKYSKQMRLHPYITVFG
B3: Copine-1 (protein, UniProt Q99829 1-537)
chain: MAHCVTLVQLSISCDHLIDKDIGSKSDPLCVLLQDVGGGSWAELGRTERVRNCSSPEFSKTLQLEYRFETVQKLRFGIYDIDNKTPELRDDDFLGGAECSLGQIVSSQVLTLPLMLKPGKPAGRGTITVSAQELKDNRVVTMEVEARNLDKKDFLGKSDPFLEFFRQGDGKWHLVYRSEVIKNNLNPTWKRFSVPVQHFCGGNPSTPIQVQCSDYDSDGSHDLIGTFHTSLAQLQAVPAEFECIHPEKQQKKKSYKNSGTIRVKICRVETEYSFLDYVMGGCQINFTVGVDFTGSNGDPSSPDSLHYLSPTGVNEYLMALWSVGSVVQDYDSDKLFPAFGFGAQVPPDWQVSHEFALNFNPSNPYCAGIQGIVDAYRQALPQVRLYGPTNFAPIINHVARFAAQAAHQGTASQYFMLLLLTDGAVTDVEATREAVVRASNLPMSVIIVGVGGADFEAMEQLDADGGPLHTRSGQAAARDIVQFVPYRRFQNAPREALAQTVLAEVPTQLVSYFRAQGWAPLKPLPPSAKDPAQAPQA
B4: Thioredoxin-related transmembrane protein 4 (protein, UniProt Q9H1E5 24-349)
chain: TAGPEEAALPPEQSRVQPMTASNWTLVMEGEWMLKFYAPWCPSCQQTDSEWEAFAKNGEILQISVGKVDVIQEPGLSGRFFVTTLPAFFHAKDGIFRRYRGPGIFEDLQNYILEKKWQSVEPLTGWKSPASLTMSGMAGLFSISGKIWHLHNYFTVTLGIPAWCSYVFFVIATLVFGLFMGLVLVVISECFYVPLPRHLSERSEQNRRSEEAHRAEQLQDAEEEKDDSNEEENKDSLVDDEEEKEDLGDEDEAEEEEEEDNLAAGVDEERSEANDQGPPGEDGVTREEVEPEEAEEGISEQPCPADTEVVEDSLRQRKSQHADKGL
B5: CDK5 regulatory subunit-associated protein 3 (protein, UniProt Q96JB5 1-506)
chain: MEDHQHVPIDIQTSKLLDWLVDRRHCSLKWQSLVLTIREKINAAIQDMPESEEIAQLLSGSYIHYFHCLRILDLLKGTEASTKNIFGRYSSQRMKDWQEIIALYEKDNTYLVELSSLLVRNVNYEIPSLKKQIAKCQQLQQEYSRKEEECQAGAAEMREQFYHSCKQYGITGENVRGELLALVKDLPSQLAEIGAAAQQSLGEAIDVYQASVGFVCESPTEQVLPMLRFVQKRGNSTVYEWRTGTEPSVVERPHLEELPEQVAEDAIDWGDFGVEAVSEGTDSGISAEAAGIDWGIFPESDSKDPGGDGIDWGDDAVALQITVLEAGTQAPEGVARGPDALTLLEYTETRNQFLDELMELEIFLAQRAVELSEEADVLSVSQFQLAPAILQGQTKEKMVTMVSVLEDLIGKLTSLQLQHLFMILASPRYVDRVTEFLQQKLKQSQLLALKKELMVQKQQEALEEQAALEPKLDLLLEKTKELQKLIEADISKRYSGRPVNLMGTSL
B6: Transmembrane emp24 domain-containing protein 1 (protein, UniProt Q13445 24-227)
chain: AGPPPIQDGEFTFLLPAGRKQCFYQSAPANASLETEYQVIGGAGLDVDFTLESPQGVLLVSESRKADGVHTVEPTEAGDYKLCFDNSFSTISEKLVFFELIFDSLQDDEEVEGWAEAVEPEEMLDVKMEDIKESIETMRTRLERSIQMLTLLRAFEARDRNLQEGNLERVNFWSAVNVAVLLLVAVLQVCTLKRFFQDKRPVPT
B7: Thioredoxin-related transmembrane protein 1 (protein, UniProt Q9H3N1 27-280)
chain: RRSNVRVITDENWRELLEGDWMIEFYAPWCPACQNLQPEWESFAEWGEDLEVNIAKVDVTEQPGLSGRFIITALPTIYHCKDGEFRRYQGPRTKKDFINFISDKEWKSIEPVSSWFGPGSVLMSSMSALFQLSMWIRTCHNYFIEDLGLPVWGSYTVFALATLFSGLLLGLCMIFVADCLCPSKRRRPQPYPYPSKKLLSESAQPLKKVEEEQEADEEDVSEEEAESKEGTNKDFPQNAIRQRSLGPSLATDKS

The assay deals with T1, Human PRELP (proline and arginine-rich end leucine-rich repeat protein) with a C-terminal FLAG tag, overexpressed in Expi293 cells (human). The experiment in a line: affinity purification with mass spectrometry; CoIP-MS: DDM extract (0.1% DDM, PBS pH 7.4) of the membrane fraction of Expi293 cells expressing PRELP-FLAG, captured on DDDDK-tagged Protein Purification Gel overnight at 4 °C, eluted with FLAG peptide; S-Trap digestion, LC-MS/MS; compared with control-transfected cells.
Consider B1, for which the binding result was “binds”.
For B2, the binding entry is on record as “binds”.
For the molecule B3, the binding result is recorded as “binds”.
Turning to B4, the binding result is “binds”.
Turning to B5, the binding result was “binds”.
Consider B6, for which the binding result was “binds”.
Consider B7, for which the binding result is reported as “binds”.
